The target of this assay is T1, HA-LAPTM4b (lysosomal-associated transmembrane protein 4b, 24-kDa isoform, wild type) (human) (UniProt Q86VI4).
T1 sequence: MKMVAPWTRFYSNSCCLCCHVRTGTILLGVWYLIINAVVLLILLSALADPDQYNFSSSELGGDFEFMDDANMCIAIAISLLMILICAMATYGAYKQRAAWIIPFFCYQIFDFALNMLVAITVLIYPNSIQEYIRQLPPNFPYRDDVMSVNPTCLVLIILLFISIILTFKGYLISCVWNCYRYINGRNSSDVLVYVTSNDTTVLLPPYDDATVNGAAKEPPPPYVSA
Briefly: affinity purification with mass spectrometry; HeLa cells transiently transfected with HA-LAPTM4b-WT for 48 h; lysis in 50 mM Hepes pH 7.5, 150 mM NaCl, 1% Triton X-100, 10% glycerol; IP with anti-HA agarose, 4 °C, 3 h; trypsin digest, shotgun LC-MS/MS.

Amino acid sequences for entries named in this document (tags omitted).
UniProt Q01650: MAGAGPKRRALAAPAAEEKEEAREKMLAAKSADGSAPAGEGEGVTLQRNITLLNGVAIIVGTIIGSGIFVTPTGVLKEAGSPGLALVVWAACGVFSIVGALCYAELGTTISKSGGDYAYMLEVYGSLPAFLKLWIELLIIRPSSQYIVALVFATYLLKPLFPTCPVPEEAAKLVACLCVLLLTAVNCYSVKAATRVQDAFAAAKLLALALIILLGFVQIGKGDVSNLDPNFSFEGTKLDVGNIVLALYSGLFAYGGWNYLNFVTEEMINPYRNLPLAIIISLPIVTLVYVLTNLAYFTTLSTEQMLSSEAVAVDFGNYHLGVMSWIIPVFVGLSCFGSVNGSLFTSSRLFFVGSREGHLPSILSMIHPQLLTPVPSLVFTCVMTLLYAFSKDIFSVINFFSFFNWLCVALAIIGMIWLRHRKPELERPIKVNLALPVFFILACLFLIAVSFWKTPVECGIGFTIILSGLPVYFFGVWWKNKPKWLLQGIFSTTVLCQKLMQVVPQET

No constants are given. Whether binding was seen depends on the method and setting. In cells and extracts the contact can be indirect. A yes stands for co-enrichment or nearness to the bait. Other partners may have been found. Sequences can lack the tags named with a protein.

Consider “endogenous LAT1 (SLC7A5) (from UniProt Q01650 1-507)”, for which the binding entry was “binds”.

Consider “endogenous 4F2hc/CD98 (SLC3A2) (from UniProt P08195 1-529)”, for which the binding result is given as “binds”.

For the origin of these results see PMC4455107.
